Assay [1] has as its target Signal transducer and activator of transcription 3 (STAT3), phosphorylated at Y705 (mouse (endogenous in CD4+ T cells)) (UniProt P42227). Nature of the assay: co-IP; lysates of CD4+ T cells cultured under Th0- or Th17-polarizing conditions for 3 days; precipitated with anti-phospho-STAT3^Y705 antibody, immunoblot with anti-phospho-FRA1 or anti-phospho-JUNB (the text tells the reverse: anti-FRA1 and anti-JUNB precipitation, STAT3 blot).

Protein sequences, listed by entry. Tags and fused reporters are not part of them.
UniProt P42227: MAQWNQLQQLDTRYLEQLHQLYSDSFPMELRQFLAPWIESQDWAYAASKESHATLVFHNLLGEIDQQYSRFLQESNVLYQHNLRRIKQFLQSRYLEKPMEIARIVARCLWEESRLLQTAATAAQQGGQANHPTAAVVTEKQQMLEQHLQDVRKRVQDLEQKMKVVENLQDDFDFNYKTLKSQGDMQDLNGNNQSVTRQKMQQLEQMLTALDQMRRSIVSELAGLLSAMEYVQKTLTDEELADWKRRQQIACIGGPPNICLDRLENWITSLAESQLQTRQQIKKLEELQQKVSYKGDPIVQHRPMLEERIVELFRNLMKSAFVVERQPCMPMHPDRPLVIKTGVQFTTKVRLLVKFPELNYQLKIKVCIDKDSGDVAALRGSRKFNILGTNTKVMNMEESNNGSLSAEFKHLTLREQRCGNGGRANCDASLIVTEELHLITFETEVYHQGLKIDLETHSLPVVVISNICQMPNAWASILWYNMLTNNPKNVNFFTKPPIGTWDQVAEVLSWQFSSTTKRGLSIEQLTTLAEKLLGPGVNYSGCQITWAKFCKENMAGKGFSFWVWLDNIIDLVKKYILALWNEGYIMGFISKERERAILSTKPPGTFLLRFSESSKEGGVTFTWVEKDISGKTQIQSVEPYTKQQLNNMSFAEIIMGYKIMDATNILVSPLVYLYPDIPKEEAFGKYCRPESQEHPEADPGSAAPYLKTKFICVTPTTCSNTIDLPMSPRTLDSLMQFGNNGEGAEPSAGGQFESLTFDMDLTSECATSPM
UniProt P05627: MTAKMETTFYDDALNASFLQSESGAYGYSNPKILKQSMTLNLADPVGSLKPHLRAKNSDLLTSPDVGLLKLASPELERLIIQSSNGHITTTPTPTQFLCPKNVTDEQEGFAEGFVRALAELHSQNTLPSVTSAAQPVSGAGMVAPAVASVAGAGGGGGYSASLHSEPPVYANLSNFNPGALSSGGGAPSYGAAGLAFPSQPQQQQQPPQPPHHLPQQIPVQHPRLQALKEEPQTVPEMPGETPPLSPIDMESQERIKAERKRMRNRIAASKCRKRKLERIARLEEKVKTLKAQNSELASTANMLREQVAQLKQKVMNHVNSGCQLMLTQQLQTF

For assay [2], the target named is c-JUN (mouse (endogenous in CD4+ T cells)) (UniProt P05627). Put plainly: co-IP; lysates of CD4+ T cells cultured under Th17-polarizing conditions; precipitated with anti-JUNB and anti-c-JUN antibodies, immunoblot with anti-FRA1, anti-c-FOS and anti-FOSB. For orientation: In western blotting, separated proteins are transferred to a membrane and probed.
Assay [3] concerns the target T1, JUNB (mouse (endogenous in CD4+ T cells)) (UniProt P09450).
T1 sequence: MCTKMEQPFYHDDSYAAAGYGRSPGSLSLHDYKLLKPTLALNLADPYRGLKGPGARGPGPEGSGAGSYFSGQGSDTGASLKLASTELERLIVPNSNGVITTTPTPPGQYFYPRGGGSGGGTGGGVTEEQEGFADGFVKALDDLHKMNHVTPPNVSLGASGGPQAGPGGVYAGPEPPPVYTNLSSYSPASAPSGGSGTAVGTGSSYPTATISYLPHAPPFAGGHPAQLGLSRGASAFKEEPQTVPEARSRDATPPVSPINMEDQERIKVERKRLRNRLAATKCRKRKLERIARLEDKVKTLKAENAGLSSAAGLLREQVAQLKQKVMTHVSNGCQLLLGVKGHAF
The description is as above.

Binding data for three molecules are collected here from paper PMC5741610.

No constants are given. Whether binding was seen depends on the method and setting. Binding seen in cells or lysates may run through a third protein. Some entries that bind do so weakly or less than the wild type.

B1: phospho-JUNB (protein, UniProt P09450 1-344)
chain: MCTKMEQPFYHDDSYAAAGYGRSPGSLSLHDYKLLKPTLALNLADPYRGLKGPGARGPGPEGSGAGSYFSGQGSDTGASLKLASTELERLIVPNSNGVITTTPTPPGQYFYPRGGGSGGGTGGGVTEEQEGFADGFVKALDDLHKMNHVTPPNVSLGASGGPQAGPGGVYAGPEPPPVYTNLSSYSPASAPSGGSGTAVGTGSSYPTATISYLPHAPPFAGGHPAQLGLSRGASAFKEEPQTVPEARSRDATPPVSPINMEDQERIKVERKRLRNRLAATKCRKRKLERIARLEDKVKTLKAENAGLSSAAGLLREQVAQLKQKVMTHVSNGCQLLLGVKGHAF
modifications: phosphorylated (detected with anti-phospho-JUNB antibody; residue not stated)
Regarding B1, the binding result in assay [1] is listed as “binds”.

B2: Fos-related antigen 1 (FRA1) (protein, UniProt P48755 1-273)
chain: MYRDYGEPGPSSGAGSPYGRPAQPPQAQAQTAQQQKFHLVPSIDSSSQELHWMVQPHFLGPTGYPRPLAYPQYSPPQPRPGVIRALGPPPGVRRRPCEQISPEEEERRRVRRERNKLAAAKCRNRRKELTDFLQAETDKLEDEKSGLQREIEELQKQKERLELVLEAHRPICKIPEGDKKDPGGSGSTSGASSPPAPGRPVPCISLSPGPVLEPEALHTPTLMTTPSLTPFTPSLVFTYPSTPEPCSSAHRKSSSSSGDPSSDPLGSPTLLAL
Regarding B2, the binding entry in assay [2] is on record as “no binding”; in assay [3], “binds”.

B3: phospho-FRA1 (protein, UniProt P48755 1-273)
chain: MYRDYGEPGPSSGAGSPYGRPAQPPQAQAQTAQQQKFHLVPSIDSSSQELHWMVQPHFLGPTGYPRPLAYPQYSPPQPRPGVIRALGPPPGVRRRPCEQISPEEEERRRVRRERNKLAAAKCRNRRKELTDFLQAETDKLEDEKSGLQREIEELQKQKERLELVLEAHRPICKIPEGDKKDPGGSGSTSGASSPPAPGRPVPCISLSPGPVLEPEALHTPTLMTTPSLTPFTPSLVFTYPSTPEPCSSAHRKSSSSSGDPSSDPLGSPTLLAL
modifications: phosphorylated (detected with anti-phospho-FRA1 antibody; residue not stated)
Take B3: in assay [1], the binding entry is given as “binds”.
